# Measurements published in PMC7701510, “Identification of HN252 as a potent inhibitor of protein phosphatase PPM1B” (Journal of Cellular and Molecular Medicine, 2020).
# Sequences of proteins named here, by UniProt entry; tags and fusion partners are left off.
# UniProt P31749: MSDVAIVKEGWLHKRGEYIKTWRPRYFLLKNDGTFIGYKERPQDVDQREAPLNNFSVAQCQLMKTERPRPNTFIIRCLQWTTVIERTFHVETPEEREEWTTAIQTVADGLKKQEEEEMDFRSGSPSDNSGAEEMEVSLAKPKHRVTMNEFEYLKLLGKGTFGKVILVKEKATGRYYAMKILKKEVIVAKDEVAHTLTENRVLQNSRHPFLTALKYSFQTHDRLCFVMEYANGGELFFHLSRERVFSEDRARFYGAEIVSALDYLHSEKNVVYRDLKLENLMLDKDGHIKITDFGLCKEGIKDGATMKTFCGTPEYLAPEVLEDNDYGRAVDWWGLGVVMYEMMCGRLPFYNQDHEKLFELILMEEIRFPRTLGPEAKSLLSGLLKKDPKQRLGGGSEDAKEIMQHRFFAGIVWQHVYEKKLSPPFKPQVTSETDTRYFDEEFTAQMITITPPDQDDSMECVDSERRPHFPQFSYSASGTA
# UniProt P08238: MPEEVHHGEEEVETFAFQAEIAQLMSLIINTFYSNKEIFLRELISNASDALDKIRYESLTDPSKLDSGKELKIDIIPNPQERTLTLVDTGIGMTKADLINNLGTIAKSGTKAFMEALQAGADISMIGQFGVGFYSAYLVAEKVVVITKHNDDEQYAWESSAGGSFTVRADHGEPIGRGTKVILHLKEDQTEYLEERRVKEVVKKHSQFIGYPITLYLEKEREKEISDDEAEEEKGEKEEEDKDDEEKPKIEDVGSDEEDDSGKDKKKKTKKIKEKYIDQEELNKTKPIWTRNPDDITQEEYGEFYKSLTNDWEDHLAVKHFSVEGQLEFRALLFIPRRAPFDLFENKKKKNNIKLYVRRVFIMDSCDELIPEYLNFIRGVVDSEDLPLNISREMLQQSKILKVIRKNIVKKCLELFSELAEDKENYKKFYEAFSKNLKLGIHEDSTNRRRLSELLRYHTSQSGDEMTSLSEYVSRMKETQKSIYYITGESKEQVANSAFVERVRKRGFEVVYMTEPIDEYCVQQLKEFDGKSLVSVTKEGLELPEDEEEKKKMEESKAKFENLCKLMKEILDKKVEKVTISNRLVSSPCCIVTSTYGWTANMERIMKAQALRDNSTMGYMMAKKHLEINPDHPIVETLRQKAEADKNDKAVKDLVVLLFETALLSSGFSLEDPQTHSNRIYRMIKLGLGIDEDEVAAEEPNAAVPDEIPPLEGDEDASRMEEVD
# UniProt P35222: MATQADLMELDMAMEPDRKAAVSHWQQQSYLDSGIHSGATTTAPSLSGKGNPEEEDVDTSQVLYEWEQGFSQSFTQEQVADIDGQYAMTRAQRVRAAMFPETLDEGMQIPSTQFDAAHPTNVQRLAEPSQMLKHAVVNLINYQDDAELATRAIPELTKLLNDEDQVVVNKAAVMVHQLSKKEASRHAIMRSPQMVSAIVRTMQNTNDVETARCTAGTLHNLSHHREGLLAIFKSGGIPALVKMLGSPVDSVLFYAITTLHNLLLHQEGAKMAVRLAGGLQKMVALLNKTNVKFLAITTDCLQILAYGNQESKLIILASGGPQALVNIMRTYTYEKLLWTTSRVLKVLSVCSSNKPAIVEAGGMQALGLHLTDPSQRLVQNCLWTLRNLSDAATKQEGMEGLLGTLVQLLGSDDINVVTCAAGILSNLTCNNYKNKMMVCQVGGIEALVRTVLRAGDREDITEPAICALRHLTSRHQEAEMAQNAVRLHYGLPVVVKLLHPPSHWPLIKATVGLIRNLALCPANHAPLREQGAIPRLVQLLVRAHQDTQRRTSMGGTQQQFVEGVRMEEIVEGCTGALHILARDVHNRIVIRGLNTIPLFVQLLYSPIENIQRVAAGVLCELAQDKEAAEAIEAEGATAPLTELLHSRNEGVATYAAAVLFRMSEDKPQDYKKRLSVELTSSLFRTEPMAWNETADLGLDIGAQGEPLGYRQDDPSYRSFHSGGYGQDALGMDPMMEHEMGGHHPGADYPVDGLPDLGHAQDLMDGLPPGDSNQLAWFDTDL
# These are yes or no findings as the source states them, for the method shown. In cells and extracts the contact can be indirect. Here binding means that the protein was enriched with, or labelled near, the bait; the list need not be complete. Where a sequence is shown, tags or fusion partners need not be part of it.
# Molecular target: T1, HA-PPM1B (protein phosphatase 1B) (human) (UniProt O75688)
# T1 sequence: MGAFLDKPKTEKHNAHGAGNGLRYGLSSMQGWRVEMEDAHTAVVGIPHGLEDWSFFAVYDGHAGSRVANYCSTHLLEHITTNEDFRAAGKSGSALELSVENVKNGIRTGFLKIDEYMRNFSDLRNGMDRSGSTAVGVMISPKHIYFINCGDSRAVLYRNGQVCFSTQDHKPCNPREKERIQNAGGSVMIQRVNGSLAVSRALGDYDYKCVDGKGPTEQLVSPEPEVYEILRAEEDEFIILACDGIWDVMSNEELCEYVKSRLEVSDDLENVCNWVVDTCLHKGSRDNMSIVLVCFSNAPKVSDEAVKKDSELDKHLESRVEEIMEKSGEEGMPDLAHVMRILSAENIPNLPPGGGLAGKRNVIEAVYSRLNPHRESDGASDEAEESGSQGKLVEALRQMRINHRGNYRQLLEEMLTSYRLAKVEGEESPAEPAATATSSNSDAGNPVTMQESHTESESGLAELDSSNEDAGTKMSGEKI
# Experiment: affinity purification with mass spectrometry; lysates of HL7702 cells overexpressing pCDH-HA-PPM1B or pCDH blank vector, immunoprecipitated with Anti-HA Magnetic Beads; eluted proteins digested with trypsin, Q Exactive HF-X, MASCOT against the UniProt human database
row,binding,Substance
1,binds,AKT1 (from UniProt P31749 1-480)
2,binds,HSP90B (from UniProt P08238 1-724)
3,binds,β-catenin (from UniProt P35222 1-781)
